Measurements as given in US20050261196A1 (UNIVERSITY OF CHICAGO, published 2005).
These are yes or no findings as the source states them, for the method shown. Some results given as binding are weak or reduced against the parent protein; the word gives no strength.

Sequences of proteins named here, by UniProt entry; tags and fusion partners are left off.
UniProt Q15746: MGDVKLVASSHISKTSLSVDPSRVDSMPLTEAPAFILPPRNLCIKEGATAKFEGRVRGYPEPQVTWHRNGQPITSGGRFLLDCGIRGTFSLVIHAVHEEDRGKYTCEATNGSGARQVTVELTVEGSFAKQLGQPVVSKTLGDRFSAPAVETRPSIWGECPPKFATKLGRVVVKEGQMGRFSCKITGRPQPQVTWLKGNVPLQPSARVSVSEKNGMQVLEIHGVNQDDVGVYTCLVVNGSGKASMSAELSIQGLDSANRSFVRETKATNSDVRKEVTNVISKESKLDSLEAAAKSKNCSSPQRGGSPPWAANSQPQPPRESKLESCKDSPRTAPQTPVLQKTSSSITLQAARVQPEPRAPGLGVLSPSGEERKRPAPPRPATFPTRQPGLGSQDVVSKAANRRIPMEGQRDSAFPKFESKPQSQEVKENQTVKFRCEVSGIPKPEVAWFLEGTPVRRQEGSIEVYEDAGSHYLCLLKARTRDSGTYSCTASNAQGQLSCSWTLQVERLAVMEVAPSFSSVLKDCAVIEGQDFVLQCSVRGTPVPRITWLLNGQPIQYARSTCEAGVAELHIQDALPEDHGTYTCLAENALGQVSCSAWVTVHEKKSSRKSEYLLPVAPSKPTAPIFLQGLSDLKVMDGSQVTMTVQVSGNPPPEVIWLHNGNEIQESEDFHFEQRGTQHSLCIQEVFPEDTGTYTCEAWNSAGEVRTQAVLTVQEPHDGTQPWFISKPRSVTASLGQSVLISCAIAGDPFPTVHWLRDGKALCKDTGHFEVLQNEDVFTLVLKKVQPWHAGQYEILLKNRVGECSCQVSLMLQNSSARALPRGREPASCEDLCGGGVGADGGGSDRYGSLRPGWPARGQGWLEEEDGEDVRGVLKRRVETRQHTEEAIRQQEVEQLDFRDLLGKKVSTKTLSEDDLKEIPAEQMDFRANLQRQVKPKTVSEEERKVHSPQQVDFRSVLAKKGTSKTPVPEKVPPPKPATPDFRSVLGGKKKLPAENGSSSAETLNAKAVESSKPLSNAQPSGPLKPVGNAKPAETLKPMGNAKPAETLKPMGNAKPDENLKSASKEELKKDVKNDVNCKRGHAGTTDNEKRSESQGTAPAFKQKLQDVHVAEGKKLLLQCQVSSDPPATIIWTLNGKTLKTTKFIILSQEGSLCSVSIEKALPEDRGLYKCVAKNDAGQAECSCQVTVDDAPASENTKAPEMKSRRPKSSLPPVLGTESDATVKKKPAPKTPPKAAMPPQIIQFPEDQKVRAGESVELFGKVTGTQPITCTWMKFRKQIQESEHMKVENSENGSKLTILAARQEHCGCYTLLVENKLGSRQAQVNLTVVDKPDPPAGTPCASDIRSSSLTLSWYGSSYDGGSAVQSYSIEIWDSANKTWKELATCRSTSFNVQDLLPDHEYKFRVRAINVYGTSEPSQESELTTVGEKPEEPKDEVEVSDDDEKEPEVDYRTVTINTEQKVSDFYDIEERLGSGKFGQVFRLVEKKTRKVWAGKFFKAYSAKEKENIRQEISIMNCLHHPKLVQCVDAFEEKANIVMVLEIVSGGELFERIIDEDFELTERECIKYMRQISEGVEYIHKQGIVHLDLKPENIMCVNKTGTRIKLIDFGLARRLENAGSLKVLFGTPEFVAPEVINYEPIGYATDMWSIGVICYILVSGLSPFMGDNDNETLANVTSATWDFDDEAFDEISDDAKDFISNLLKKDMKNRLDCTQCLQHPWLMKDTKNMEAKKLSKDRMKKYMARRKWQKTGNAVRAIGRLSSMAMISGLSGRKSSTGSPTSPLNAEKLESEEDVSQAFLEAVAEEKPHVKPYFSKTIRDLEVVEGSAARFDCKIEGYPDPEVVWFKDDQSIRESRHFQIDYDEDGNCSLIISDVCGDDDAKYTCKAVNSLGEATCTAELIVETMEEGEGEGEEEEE

Molecular target: active (activated) MLCK, aldehyde-fixed (UniProt Q15746)
Test: binding of PIK probe to aldehyde-fixed MLCK, streptavidin fluorescence

- binding: binds
Binder: RKKYKYRRK [PIK (SEQ ID NO: 12)]
